Test results as given in patent publication US11034696B2, “Compounds for inhibiting LRRK2 kinase activity” (GLAXOSMITHKLINE INTELLECTUAL PROPERTY DEVELOPMENT LIMITED, priority 2017, dated 2021).
Some of these results come from one statement about several compounds together.

The chains behind the UniProt entries cited, without tags or fusion partners. A line that says so, or that is headed by a name, gives the form on record, which may keep a tag or linker.
UniProt Q5S007, with tags, fused parts or gaps R50H: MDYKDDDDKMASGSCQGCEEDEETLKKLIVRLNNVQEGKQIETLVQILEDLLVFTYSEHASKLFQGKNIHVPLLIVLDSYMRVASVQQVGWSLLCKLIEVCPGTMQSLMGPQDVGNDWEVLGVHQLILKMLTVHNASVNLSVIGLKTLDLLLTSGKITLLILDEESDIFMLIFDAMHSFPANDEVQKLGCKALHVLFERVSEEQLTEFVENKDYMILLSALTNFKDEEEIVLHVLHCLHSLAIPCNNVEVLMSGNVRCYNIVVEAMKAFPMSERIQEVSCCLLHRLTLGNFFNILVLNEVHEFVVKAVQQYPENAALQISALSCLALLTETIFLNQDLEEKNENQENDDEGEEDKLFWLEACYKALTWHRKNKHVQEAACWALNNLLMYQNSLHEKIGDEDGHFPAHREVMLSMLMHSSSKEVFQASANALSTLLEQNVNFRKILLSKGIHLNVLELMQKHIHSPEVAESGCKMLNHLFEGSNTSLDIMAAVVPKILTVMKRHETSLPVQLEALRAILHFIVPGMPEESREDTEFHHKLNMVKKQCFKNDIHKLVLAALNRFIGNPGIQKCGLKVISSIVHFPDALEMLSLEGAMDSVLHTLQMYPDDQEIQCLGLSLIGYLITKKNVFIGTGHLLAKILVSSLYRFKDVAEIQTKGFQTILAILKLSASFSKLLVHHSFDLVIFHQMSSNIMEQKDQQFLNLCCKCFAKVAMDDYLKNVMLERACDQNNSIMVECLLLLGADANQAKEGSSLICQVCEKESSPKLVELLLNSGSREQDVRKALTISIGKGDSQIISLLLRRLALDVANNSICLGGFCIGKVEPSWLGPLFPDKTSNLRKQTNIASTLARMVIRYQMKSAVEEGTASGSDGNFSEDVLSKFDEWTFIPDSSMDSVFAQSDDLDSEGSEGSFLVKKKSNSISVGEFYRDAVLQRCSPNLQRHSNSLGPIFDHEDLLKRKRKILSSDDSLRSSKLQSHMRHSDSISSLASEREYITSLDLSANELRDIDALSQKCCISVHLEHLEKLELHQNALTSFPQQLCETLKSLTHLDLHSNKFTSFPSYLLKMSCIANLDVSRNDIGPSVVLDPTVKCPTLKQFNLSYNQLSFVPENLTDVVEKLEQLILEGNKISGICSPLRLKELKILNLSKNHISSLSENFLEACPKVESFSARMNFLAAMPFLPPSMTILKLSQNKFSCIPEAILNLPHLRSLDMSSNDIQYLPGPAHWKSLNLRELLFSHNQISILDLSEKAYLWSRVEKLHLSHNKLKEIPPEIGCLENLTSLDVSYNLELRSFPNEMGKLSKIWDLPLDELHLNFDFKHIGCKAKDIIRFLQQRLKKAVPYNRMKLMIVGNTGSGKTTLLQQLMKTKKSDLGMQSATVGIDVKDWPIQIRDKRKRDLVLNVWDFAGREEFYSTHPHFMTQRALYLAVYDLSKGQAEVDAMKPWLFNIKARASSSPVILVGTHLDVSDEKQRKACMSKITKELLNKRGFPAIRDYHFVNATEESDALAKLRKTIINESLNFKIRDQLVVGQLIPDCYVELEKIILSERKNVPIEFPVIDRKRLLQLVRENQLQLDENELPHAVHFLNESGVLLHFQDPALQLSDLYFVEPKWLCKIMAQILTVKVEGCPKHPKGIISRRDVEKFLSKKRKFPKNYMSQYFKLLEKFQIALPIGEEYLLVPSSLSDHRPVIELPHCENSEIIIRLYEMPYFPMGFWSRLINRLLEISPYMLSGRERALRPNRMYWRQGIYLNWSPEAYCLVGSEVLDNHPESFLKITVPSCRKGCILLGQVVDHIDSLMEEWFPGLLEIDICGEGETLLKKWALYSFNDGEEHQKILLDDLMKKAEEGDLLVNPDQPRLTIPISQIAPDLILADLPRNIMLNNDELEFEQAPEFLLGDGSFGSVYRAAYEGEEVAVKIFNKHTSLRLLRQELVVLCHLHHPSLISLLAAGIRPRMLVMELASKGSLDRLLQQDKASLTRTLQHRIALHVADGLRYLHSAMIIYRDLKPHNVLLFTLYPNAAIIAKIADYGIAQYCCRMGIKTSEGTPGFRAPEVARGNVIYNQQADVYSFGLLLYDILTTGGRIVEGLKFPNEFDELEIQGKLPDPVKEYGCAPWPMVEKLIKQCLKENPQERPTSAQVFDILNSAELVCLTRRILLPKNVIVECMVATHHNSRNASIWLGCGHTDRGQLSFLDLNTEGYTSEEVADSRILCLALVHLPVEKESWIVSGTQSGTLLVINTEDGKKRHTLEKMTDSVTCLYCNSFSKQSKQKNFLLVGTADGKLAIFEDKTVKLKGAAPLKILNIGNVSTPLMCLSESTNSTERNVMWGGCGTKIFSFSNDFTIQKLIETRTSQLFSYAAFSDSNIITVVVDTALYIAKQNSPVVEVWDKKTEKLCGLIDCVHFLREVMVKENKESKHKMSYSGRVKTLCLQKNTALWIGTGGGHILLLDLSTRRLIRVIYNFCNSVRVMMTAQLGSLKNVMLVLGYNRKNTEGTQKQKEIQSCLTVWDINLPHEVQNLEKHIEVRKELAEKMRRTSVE

What follows are molecules tested against T1, LRRK2 (Homo sapiens, UniProt Q5S007) (assay: Recombinant cellular LRRK2 AlphaScreen assay (LRRK2 Ser935 phosphorylation in SH-SY5Y cells over-expressing recombinant full length LRRK2)). Details: 60 minutes compound incubation.
T1 construct: A BacMam virus expressing full length recombinant LRRK2 was purchased from Invitrogen; host or cells: SH-SY5Y human neuroblastoma cells transduced with BacMam LRRK2 virus
Assay type: cell-based
Excerpt: 2) Recombinant Cellular LRRK2 AlphaScreen Assay
To determine the activity of compounds against LRRK2 kinase activity in cells, the observed LRRK2 kinase-dependent modulation of LRRK2 Ser 935 phosphorylation (Dzamko et al., 2010, Biochem. J. 430: 405-413) was utilized to develop a quantitative 384 well plate-based immunoassay of LRRK2 Ser935 phosphorylation in the human neuroblastoma cell line SH-SY5Y, engineered to over-express recombinant full length LRRK2 protein.
A BacMam virus expressing full length recombinant LRRK2 was purchased from Invitrogen and amplified by inoculation of SF-9 cells at MOI 0.3 for 4-5 days in Sf-900 III SFM medium supplemented with 3% fetal bovine serum. Infected cell cultures were then centrifuged at 2000 g for 20 minutes, viral supernatant titer determined by anti-gp64 plaque assay and stored at 4° C.
Affinity-purified anti-phospho LRRK2 Ser935 sheep polyclonal antibody (Dzamko et al., 2010, Biochem. J. 430: 405-413) was biotinylated by standard methods (PerkinElmer). Anti-LRRK2 rabbit polyclonal antibody was purchased from Novus Biologicals. AlphaScreen Protein A IgG Kit (including acceptor and donor beads) was purchased from Perkin Elmer.
SH-SY5Y cells were grown in DMEM/F12 medium with 10% dialysed fetal bovine serum and harvested by treatment with 0.5% trypsin-EDTA for 5 minutes at 37° C. followed by centrifugation at 1000 rpm for 4 minutes. The cell pellet was resuspended in Opti-MEM reduced serum media (Invitrogen) at 200,000 cells/ml and mixed with the BacMam LRRK2 virus at MOI=50. 50 μl cell solutions were then dispensed to each well of a 384-well plate and incubated at 37° C., 5% CO2 for 24 hours.
Serial dilutions of test compounds were prepared in Opti-MEM reduced serum media (Invitrogen) and 5.6 ul transferred from compound plate to cell assay plate to achieve a top final assay concentration of 10 uM. DMSO was used in certain wells as controls. Cells were incubated at 37° C., 5% CO2 for 60 minutes. The medium was then removed and cells lysed by addition of 20 ul cell lysis buffer (Cell Signaling Technology) and incubation at 4° C. for 20 minutes. 10 ul of antibody/acceptor bead mix [(1/1000 biotinylated-pS935 LRRK2 antibody, 1/1000 total-LRRK2 antibody, 1/100 Acceptor beads in AlphaScreen detection buffer (25 mM Hepes (pH 7.4), 0.5% Triton X-100, 1 mg/ml Dextran 500 and 0.1% BSA)] was then added to each well and plates incubated for 2 hours at ambient temperature in the dark. 10 μl of donor beads solution (1/33.3 donor beads in AlphaScreen detection buffer) was then added to each well. Following incubation for a further 2 hours at ambient temperature in the dark, plates were read on an EnVision™ plate reader at emission 520-620 nm with excitation 680 nm. Dose response curve data was based on sigmoidal dose-response model.
Cc1nc(N2CC3CC3(O)C2)cc(-n2ncc3cc(C)c(C4CCN(C5COC5)CC4)cc32)n1 (stereo not drawn) [Example A-9, 3-(2-Methyl-6-(5-methyl-6-(1-(oxetan-3-yl)piperidin-4-yl)-1H-indazol-1-yl)pyrimidin-4-yl)-3-azabicyclo[3.1.0]hexan-1-ol] was tested, and the “pIC50 in the recombinant cellular LRRK2 AlphaScreen assay” value was > 6. With Cc1nc(N2CCN3CCC[C@H]3C2)cc(-n2ncc3cc(C)c(C4CCN(C5COC5)CC4)cc32)n1 [Example A-8, (S)-1-(6-(hexahydropyrrolo[1,2-a]pyrazin-2(1H)-yl)-2-methylpyrimidin-4-yl)-5-methyl-6-(1-(oxetan-3-yl)piperidin-4-yl)-1H-indazole] the “pIC50 in the recombinant cellular LRRK2 AlphaScreen assay” value was > 6. In the case of Cc1nc(N2CCN3CCC[C@@H]3C2)cc(-n2ncc3cc(C)c(C4CCN(C5COC5)CC4)cc32)n1 [Example A-7, (R)-1-(6-(hexahydropyrrolo[1,2-a]pyrazin-2(1H)-yl)-2-methylpyrimidin-4-yl)-5-methyl-6-(1-(oxetan-3-yl)piperidin-4-yl)-1H-indazole], the “pIC50 in the recombinant cellular LRRK2 AlphaScreen assay” value is reported as > 6. With COc1nc(N2CCN3CCOCC3C2)cc(-n2ncc3cc(C)c(C4CCN(C5COC5)CC4)cc32)n1 (single isomer, unassigned) [Example A-12, 8-(2-methoxy-6-(5-methyl-6-(1-(oxetan-3-yl)piperidin-4-yl)-1H-indazol-1-yl)pyrimidin-4-yl)octahydropyrazino[2,1-c][1,4]oxazine] the “pIC50 in the recombinant cellular LRRK2 AlphaScreen assay” value was > 6. For COc1nc(N2CCN3C(=O)CCC3C2)cc(-n2ncc3cc(C)c(C4CCOCC4)cc32)n1 (single isomer, unassigned) [Example A-5, 2-(2-methoxy-6-(5-methyl-6-(tetrahydro-2H-pyran-4-yl)-1H-indazol-1-yl)pyrimidin-4-yl)hexahydropyrrolo[1,2-a]pyrazin-6(2H)-one], the “pIC50 in the recombinant cellular LRRK2 AlphaScreen assay” value was > 6. With Cc1nc(N2CC3CCOC3C2)cc(-n2ncc3cc(C)c(C4CCN(C5COC5)CC4)cc32)n1 (single isomer, unassigned) [Example A-10, cis-5-(2-methyl-6-(5-methyl-6-(1-(oxetan-3-yl)piperidin-4-yl)-1H-indazol-1-yl)pyrimidin-4-yl)hexahydro-2H-furo[2,3-c]pyrrole] the “pIC50 in the recombinant cellular LRRK2 AlphaScreen assay” value was > 6.

Each molecule was assayed against T2, Full length G2019 human LRRK2 (Homo sapiens, UniProt Q5S007, R50H) (assay: Full length G2019 human LRRK2 Inhibition Mass Spectrometry assay (LRRKtide, RapidFire)). Details: 25 nM LRRK2, 25 μm LRRKtide, 2 mM ATP.
T2 construct: made in house; host or cells: HEK293 6E cells transduced with BacMam virus (virus generated in Sf9 cells)
Assay type: biochemical
Cc1nc(N2CCN3CCC[C@@H]3C2)cc(-n2ncc3cc(C)c(C4CCN(C5COC5)CC4)cc32)n1 [Example A-7, (R)-1-(6-(hexahydropyrrolo[1,2-a]pyrazin-2(1H)-yl)-2-methylpyrimidin-4-yl)-5-methyl-6-(1-(oxetan-3-yl)piperidin-4-yl)-1H-indazole] was tested, and the “pIC50 in the full length G2019 human LRRK2 Inhibition Mass Spectrometry assay” value was ≥ 6.5. In the case of COc1nc(N2CCN3CCC[C@@H]3C2)cc(-n2ncc3cc(C)c(C4CCN(C5COC5)CC4F)cc32)n1 (single isomer, unassigned) [Example A-4], the “pIC50 in the full length G2019 human LRRK2 Inhibition Mass Spectrometry assay” value is reported as ≥ 6.5. For COc1nc(N2CCN3CCC[C@H]3C2)cc(-n2ncc3cc(C)c(C4CCN(C5COC5)CC4F)cc32)n1 (single isomer, unassigned) [Example A-3], the “pIC50 in the full length G2019 human LRRK2 Inhibition Mass Spectrometry assay” value was ≥ 6.5. For COc1nc(N2CCN3CCC[C@H]3C2)cc(-n2ncc3cc(C)c(C4CCN(C5COC5)CC4F)cc32)n1 (single isomer, unassigned) [Example A-2], the “pIC50 in the full length G2019 human LRRK2 Inhibition Mass Spectrometry assay” value was ≥ 6.5. With COc1nc(N2CCN3CCC[C@@H]3C2)cc(-n2ncc3cc(C)c(C4CCN(C5COC5)CC4F)cc32)n1 (single isomer, unassigned) [Example A-1] the “pIC50 in the full length G2019 human LRRK2 Inhibition Mass Spectrometry assay” value was ≥ 6.5. With COc1nc(N2CCN3C(=O)CCC3C2)cc(-n2ncc3cc(C)c(C4CCOCC4)cc32)n1 (single isomer, unassigned) [Example A-5, 2-(2-methoxy-6-(5-methyl-6-(tetrahydro-2H-pyran-4-yl)-1H-indazol-1-yl)pyrimidin-4-yl)hexahydropyrrolo[1,2-a]pyrazin-6(2H)-one] the “pIC50 in the full length G2019 human LRRK2 Inhibition Mass Spectrometry assay” value was ≥ 6.5.
